Data on 77 molecules can be found in publication PMC12040169 (PLOS Biology, 2025).

The list shows a part of the results.

The experiment relates to T1, CTL2-GFP (C. trachomatis L2/434/Bu, GFP-expressing).
T1 construct: L2/434/Bu, GFP-expressing
Set-up: species or system HeLa; Intracellular C. trachomatis growth in HeLa cells, bulk GFP fluorescence relative to DMSO. Particulars: bulk GFP, single well; 28.5 h, 10 µM; inhibitor.
Take `O=C(CSC1c2ccccc2Oc2ccccc21)Nc1ccccc1C(=O)O` [CBK266499]: the “% of control remaining” value stood at 155.811%.
With `COC(=O)c1cc(C)sc1NC(=S)Nc1ccn(Cc2ccc(Br)cc2)n1` [CBK266934], the “% of control remaining” value is on record as 141.954%.
Take `CCCS(=O)(=O)N1CCN(S(=O)(=O)c2ccc(NC(C)=O)cc2)CC1` [CBK264288]: the “% of control remaining” value worked out at 110.531%.
To `COc1ccc(-c2nc3ccccc3s2)cc1NC(=O)c1ccc(OCC(C)C)cc1` [CBK268878] belongs 148.658%; to `Nc1ncc(-c2ccc(C(=O)N3CCOCC3)cc2)cc1C(=O)NCc1ccc(Cl)c(Cl)c1` [CBK158570], 52.7339%.
The result for `CCC1C(=O)NCCN1C(=O)c1cc2cc(C)ccc2n1C` (centres unmarked) [CBK281729] reads 106.849%; that for `CCN(CC)C(=O)c1sc(NC(=O)c2cc(-c3ccncc3)nc3c(C)cccc23)c(C#N)c1C` [CBK267771], 134.185%.
To `CC(C)c1nc(CN2CCN(c3ccc4nncn4n3)CC2)cs1` [CBK306219] belongs 134.934%; to `Cc1n[nH]c2c1CN(Cc1nc(C)c(C)n1C)CC2` [CBK307456], 147.134%; to `O=C(Cc1ccsc1)NCCn1nc(-c2cccs2)ccc1=O` [CBK283842], 112.959%.
For `CC(C)CNC(=O)C(=O)NCCc1ccc(F)cc1` [CBK264903], the “% of control remaining” value is 130.727%.
The result for `Cn1nccc1C(=O)NC(Cc1ccsc1)c1cccnc1` (centres unmarked) [CBK285394] reads 105.521%; that for `Cc1nc2ccc(C(=O)NCCn3ccnc3C)cc2s1` [CBK282477], 149.126%; that for `Cc1nc(C)c(C(=O)N2CCC(c3cc4ncccc4[nH]3)CC2)s1` [CBK283396], 148.409%.
To `CC(C)NC(=O)[C@H]1O[C@H](CCN2CCN(c3ccccn3)CC2)CC[C@@H]1O` [CBK288722] belongs 110.953%; to `O=C1CCc2cccc(OCCO)c21` [CBK001442], 93.4389%.
To `O=C(O)c1ccc(NS(=O)(=O)c2ccc(Br)c3ccccc23)cc1O` [CBK299772] belongs 154.729%; to `C=CCN1CCc2cc(-c3cncn3CC(=O)NC(C)(C)C)ccc21` [CBK281923], 144.091%.
`C[C@@H]1CN(C(=O)c2cn(C)c3ccccc23)C[C@H](C)O1` [CBK200235]: the “% of control remaining” value was found to be 128.827%.
The result for `CC(C)c1noc(C(C)N2CCN(Cc3noc(C(C)(C)C)n3)CC2)n1` (centres unmarked) [CBK305202] reads 152.765%; that for `COc1ccc2c(c1)C1(CC(=O)N(Cc3ccccc3)C1=O)C(=O)N2CC(=O)O` (centres unmarked) [CBK076108], 100%.
To `CNC(=O)C1(Cc2ccccc2-c2ccccc2)CCN(C(=O)Cc2cccc(C)c2)CC1` [CBK285594] belongs 101.953%; to `O=C(NCC1CCCN1)c1cnn(-c2ccc(Cl)cc2)c1C(F)(F)F` (centres unmarked) [CBK115925C], 118.41%; to `CCCCn1nc(C2CC2)nc1-c1cnn2cc(C)cnc12` [CBK306683], 132.481%.
As for `COc1ccc(F)c(CN2CCC3(CCCNC3=O)CC2)c1` [CBK284827], the “% of control remaining” value stood at 105.865%.
As for `O=S(=O)(NCc1cccnc1)N1CCOCC1` [CBK269945], the “% of control remaining” value turned out to be 148.84%.
Consider `C[C@H](Nc1cncc(-c2cccc(CO)c2)n1)c1ccccc1` [CBK065512], for which the “% of control remaining” value came out at 202.912%.
For `N#Cc1ccc(C(=O)Nc2ccc3n(c2=O)C[C@H]2C[C@@H]3CN(C(=O)c3ccccc3)C2)cc1` [CBK289073], the “% of control remaining” value is 116.586%.
The result for `CC1CCCN(CC(C)(C)NC(=O)c2ccnn2C(F)F)C1` (centres unmarked) [CBK282099] reads 147.097%; that for `O=C(COC(=O)c1ccccc1NC(=O)c1ccccc1)c1ccc2ccccc2c1` [CBK265491], 118.293%.
To `O=C(N[C@H]1CCN2C(=O)[C@H]3CCCN3C(=O)[C@@H]2C1)c1cccs1` [CBK289538] belongs 128.207%; to `O=C(Nc1ccc2[nH]ccc2c1)N1CCCC(CO)C1` (centres unmarked) [CBK156044], 100%; to `COc1ncccc1-c1csc(N2CCOC(C)C2)n1` (centres unmarked) [CBK304118], 119.385%.
To `CC(C)(C)c1ccc(Oc2c(C(F)(F)F)oc3cc(OCC(=O)O)ccc3c2=O)cc1` [CBK217882] belongs 100%.
As to `CC(NC(=O)Cc1c[nH]c(=O)[nH]c1=O)c1cc2cc(Cl)ccc2o1` (centres unmarked) [CBK285673], the “% of control remaining” value is 122.216%.
To `CCOC(=O)c1ccc(-c2[nH]cnc2-c2c(C)cc(OC)cc2O)o1` [CBK026647] belongs 65.2562%; to `c1ccc2c(c1)CCC(CNCCN1CCOCC1)O2` (centres unmarked) [CBK023956G], 127.001%; to `Cc1cc(Br)cc(C)c1OCC(=O)NNC(=O)Cc1cccc2ccccc12` [CBK267151], 116.511%.
On to `Cc1ccc(-c2oncc2C(=O)NCc2ccc(S(N)(=O)=O)cc2)cc1` [CBK154912], for which the “% of control remaining” value is 110.592%.
The result for `COc1cccc(Nc2cc(-c3cccc(N)c3)ncn2)c1OC` [CBK090726] reads 144.521%.
To `Nc1ncc(-c2cccc(Br)c2)nc1NC1CCOCC1` [CBK063854] belongs 128.703%; to `Cc1cc(-c2cn3cc(C(=O)NCCO)nc3c(=O)n2C)c(C)o1` [CBK307288], 98.6279%.
To `Cc1cc(C2CCCCCN2C(=O)c2ccccc2F)on1` (centres unmarked) [CBK284842] belongs 136.946%; to `Cc1ccc(S(=O)(=O)NCCSc2ccccn2)cc1[N+](=O)[O-]` [CBK263566], 100%; to `Cc1cc(C)c(C#N)c(N2CCOC3(CCN(C(=O)OCc4ccccc4)CC3)C2)n1` [CBK161114T], 142.956%.
For the molecule `CSc1ccc(-c2cn3ccnc3c(N3CCN(CCO)CC3)n2)cc1` [CBK066596], the “% of control remaining” value came to 170.105%.
The result for `COc1ccc(C)cc1S(=O)(=O)n1cc2c3c(cccc31)CN(C(=O)CN(C)C)C2` [CBK155549T] reads 107.828%; that for `COc1ccc(C(=O)Nc2cc(C)c3c(=O)oc4ccccc4c3n2)cc1` [CBK287435], 140.97%; that for `O=C(O)C1CC=CCC1C(=O)c1c[nH]c2ccccc12` (centres unmarked) [CBK286603], 120.017%.
To `N#Cc1ccccc1COC(=O)c1cc(-c2ccc(/C=C/c3[nH]c(=O)[nH]c(=O)c3[N+](=O)[O-])o2)ccc1Cl` [CBK268888] belongs 90.8093%; to `O=C(c1coc2ccc(O)c(CN3CCCCC3)c12)C1CC1` [CBK263206C], 117.391%.
The result for `COc1ccc(OC)c(CN(C(=O)c2oc3ccc(F)cc3c2C)c2cnn(C)c2)c1` [CBK298278] reads 159.028%.
On to `O=[N+]([O-])c1ccc(CN(CCc2ccccc2)Cc2ccccc2)cc1` [CBK261866], for which the “% of control remaining” value amounted to 117.812%.
With `CC(NC(=O)c1cn(-c2ccccc2)nc1-c1cccnc1)c1ccccn1` (centres unmarked) [CBK295660], the “% of control remaining” value is recorded as 112.752%.
To `N#CCC(=O)Nc1ccc(C(=O)N2CCN(c3ccccc3)CC2)cc1` [CBK306060] belongs 124.337%; to `Cc1cccc(-c2ncc(NC(=O)CCc3cccc(Cl)c3)nc2-c2cccnc2)c1` [CBK037201], 87.4669%.
The result for `Cc1cc2c(o1)CCc1sc(N(C)C(=O)C3CC(=O)N(C)C3)nc1-2` (centres unmarked) [CBK283980] reads 116.347%.
The result for `C[C@@H](Nc1cncc(-c2ccc(F)cc2F)n1)c1ccccc1` [CBK065676] reads 87.2004%; that for `CCCOc1ccc(-c2cn(CC(=O)NN)cn2)cc1` [CBK261790], 112.822%.
For the molecule `CCn1c(C2CCN(C(=O)c3cc(C(F)(F)F)n[nH]3)CC2)nn(C)c1=O` [CBK307184], the “% of control remaining” value was determined as 106.572%.
`Cc1noc(C)c1C(=O)Nc1cnc(-c2cccc(C(F)(F)F)c2)c(-c2cccnc2)n1` [CBK036727]: the “% of control remaining” value is on record as 102.072%.
The result for `COC(=O)Nc1ccc2c(c1)N(C(=O)CCN1CCOCC1)c1ccccc1CC2` [CBK261284C] reads 115.724%; that for `CCN(CC)c1ccc(C(=O)Cn2c(=O)n(C(=O)c3cccc(S(C)(=O)=O)c3)c3ccccc32)cc1` [CBK106500], 66.356%.
`Cc1nc2c(C(=O)NCC3CCCO3)cnn2c(C)c1Cc1cccnc1` (centres unmarked) [CBK162160]: the “% of control remaining” value was 152.679%.
In the case of `Cc1cc(=O)n2ccc(CN3CCOCC3)c(O)c2n1` [CBK262899C], the “% of control remaining” value came out at 144.668%.
The result for `C=CCn1c(SCC(=O)Nc2ccnc3ccccc23)nnc1-c1cccnc1` [CBK268723] reads 126.998%.
The result for `Cn1cc(CCCCNC(=O)Cc2c[nH]c3ccc(Cl)cc23)cn1` [CBK306364] reads 116.515%.
To `CCNC(=O)N1CC2(CCN(CC3COc4ccccc4O3)CC2)c2ccccc21` (centres unmarked) [CBK143944] belongs 107.237%; to `O=C1[C@@H]2CCCN2C(=O)c2ccccc2N1CCN1CCCC1` [CBK282857], 98.1354%.
Regarding `O=C(CSc1nnc(-c2ccc(F)cc2)n1-c1ccccc1)Nc1cccc2ccccc12` [CBK267592], the “% of control remaining” value stood at 118.384%.
On to `O=c1[nH]c(=O)c2cc(S(=O)(=O)NCc3ccccc3CN3CCCC3)ccc2[nH]1` [CBK286395], for which the “% of control remaining” value is 93.3532%.
With `CCN1CCN(C(=O)CN(C)S(=O)(=O)c2ccc(Cl)cc2)CC1` [CBK267218], the “% of control remaining” value was 129.34%.
The result for `COc1ccc(C(=O)Nc2cc(C)c3c(=O)oc4ccccc4c3n2)c(OC)c1` [CBK291231] reads 154.357%; that for `CC(C)(CNC(=O)Cn1cccc(C(=O)Nc2ccc(F)cc2)c1=O)c1ccccc1F` [CBK286067], 123.759%.
As to `CC(=O)c1ccc(-c2nc(NC(=O)CC3OC(=O)c4ccccc43)cnc2-c2cccc(C)c2)s1` (centres unmarked) [CBK037152], the “% of control remaining” value was found to be 175.524%.
To `FC(F)(F)Oc1ccc(-n2cc(-c3ccsc3)nn2)cc1` [CBK113096] belongs 148.226%; to `CC(C)(CO)CNc1cncc(-c2ccc(O)cc2)n1` [CBK065386], 173.706%.
